Experimental data published in PubChem BioAssay AID1487 (National Center for Advancing Translational Sciences (NCATS), 2009).
This is one part of the list. These are further read-outs of the screen, such as a control signal, another cell line or another target. No call is given for them. Most of these compounds were active or inconclusive in the main read-out, so they are no random draw. Potencies come from curve fits of mixed quality, noted in brackets.

Test: qHTS Assay for Modulators of Lamin A Splicing
Settings: HeLa LMNA splicing GFP/RFP minigene ratio, 48 h
Method in brief: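 S3 HeLa cells stably expressing lamin A-EGFP splicing minigene plus DsRed2, 600 cells/well, 48 h compound exposure at 37C. Laser-scanning cytometry; analysed as GFP (500-530 nm)/RFP (575-640 nm) total intensity ratio; 0.5% DMSO vehicle.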

[1] = measured here: GFP splicing reporter channel
[2] = measured here: RFP viability control channel

Compound	AC50 [1]	AC50 [2]
C[C@H](NC(=O)N1CCc2nc(-c3ccccc3)c3c(c2C1)CO[C@@H](C)C3)c1ccccc1	0.000891 µM [rising, full curve, poor fit]	–
CC(=O)c1c(N2CCN(Cc3ccccc3)CC2)nc(=S)n(Cc2ccccc2)c1C	–	35.5 µM [rising, single point]
CCOC(=O)c1c(NC(=O)c2cc(-c3cccc(O)c3)on2)sc(C(C)=O)c1C	–	3.98 µM [rising, single point]
CC(C)(CO)[C@@H](O)C(=O)NCCCO	0.794 µM [falling, single point]	–
Cc1ccc(C)c(S(=O)(=O)N2CCN(CC(=O)Nc3ccc4c(c3)CCC4)CC2)c1	–	31.6 µM [rising, single point]
O=C1OC(C(=O)Nc2ccccc2)Cc2ccccc21 (centres undefined)	5.62 µM [rising, partial curve, poor fit]	3.55 µM [rising, single point]
CCN(CC)S(=O)(=O)c1cccc(C(=O)N/N=C(\C)c2cccs2)c1	3.98 µM [falling, partial curve]	–
O=S(=O)(NCc1ccccc1)c1ccc(S(=O)(=O)N(Cc2ccccn2)C2CCCC2)cc1	–	35.5 µM [rising, single point]
O=C(c1cc(COc2ccc3ncccc3c2)on1)N1CCCCCC1	0.398 µM [falling, single point]	–
O=C(CC(c1ccccc1)c1ccccc1)NCc1cccnc1	–	10 µM [rising, partial curve, poor fit]
CCNc1ncc2nc(-c3cccs3)c(=O)n(C[C@H]3CCCO3)c2n1	11.2 µM [falling, partial curve, poor fit]	35.5 µM [falling, single point]
CC(C)CC(COCc1ccc(C(F)(F)F)cc1)N1CCN(C(=O)c2ccc(C(F)(F)F)cc2)CCC1=O (centres undefined)	12.6 µM [rising, single point]	14.1 µM [rising, single point]
CCOC(=O)[C@H](CCc1ccccc1)N[C@@H](C)C(=O)N1[C@H](C(=O)O)C[C@H]2CCCC[C@@H]21	–	1.41 µM [rising, full curve]
CC(=O)Nc1ccc(N=C(C2=C(O)c3ccccc3C2=O)c2ccccc2)cc1	35.5 µM [falling, single point]	12.6 µM [rising, single point]
CCCC(=O)c1ccc(N2CCN(C(=O)OCC)CC2)c(F)c1	12.6 µM [rising, single point]	–
Cc1cccc(N2CCN(C(=O)C3CCN(S(=O)(=O)c4cccc5cccnc45)CC3)CC2C)c1 (centres undefined)	–	15.8 µM [rising, single point]
CC(C)Cn1c(SCC(=O)N2CCc3ccccc3C2)nc2cc(Cl)ccc2c1=O	10 µM [rising, partial curve]	25.1 µM [rising, partial curve]

Compound	AC50 [1]	AC50 [2]
C=C(C)C1CC[C@]2(CO)CC[C@@]3(C)[C@H](CCC4[C@@]5(C)CCC(O)C(C)(C)C5CC[C@@]43C)C12 (some centres undefined)	–	14.1 µM [falling, partial curve]
COc1ccc(C2=NN(C3=NN=C(N)Cc4ncnn43)C(O)(C(F)(F)F)C2)cc1 (centres undefined)	0.02 µM [falling, full curve, poor fit]	0.0447 µM [falling, full curve, poor fit]
COc1ccc(OC)c(NC(=O)c2nc(-c3ccccc3)oc2C)c1	0.316 µM [rising, partial curve]	0.631 µM [rising, partial curve]
Cc1ccc(-c2cc(C(=O)N3CCCc4ccccc43)no2)cc1	–	17.8 µM [falling, single point]
Cc1csc(NC(=O)c2cc3c(s2)CCCC3)n1	12.6 µM [rising, partial curve]	12.6 µM [rising, partial curve]
COc1ccc(S(=O)(=O)Nc2ccc(Cl)cn2)c(C)c1C	–	12.6 µM [rising, partial curve, poor fit]
O=C(NCCc1ccc(Cl)cc1)Nc1cccc(Cl)c1	–	0.316 µM [falling, partial curve, poor fit]
COc1ccccc1-c1cc(C(F)(F)F)nc(S(=O)(=O)CCCC(=O)N2CCOCC2)n1	22.4 µM [falling, single point]	12.6 µM [falling, single point]
Cc1c(Cl)cccc1NC(=O)C1CCN(S(C)(=O)=O)CC1	0.316 µM [rising, full curve, poor fit]	0.00316 µM [rising, full curve, poor fit]
O=C(c1ccc(Cl)cc1)N1CCC(c2ccncc2)CC1	0.891 µM [falling, full curve]	–
Cc1cc(C)n(-c2cc(N3CCN(C(=O)c4ccc(C(C)(C)C)cc4)CC3)ccc2[N+](=O)[O-])n1	35.5 µM [falling, single point]	–
Cc1cccc(NC(=S)N2CCN(c3cc(C)ccc3C)CC2)c1	17.8 µM [rising, single point]	35.5 µM [rising, single point]
c1nc(NCCN2CCOCC2)c2c3c(sc2n1)CCCCC3	–	11.2 µM [rising, single point]
CC(C)(C)c1ccc(S(=O)(=O)NCc2ccc3c(c2)CCN3C(=O)c2ccccc2)cc1	35.5 µM [falling, single point]	35.5 µM [falling, single point]
Fc1ccccc1N1CCN(c2cnc3ccccc3n2)CC1	15.8 µM [rising, partial curve]	22.4 µM [rising, partial curve]
COc1cccc(-c2nc(NCc3cccnc3)c3ccccc3n2)c1	12.6 µM [falling, single point]	14.1 µM [falling, single point]
CN(c1ccc(C(=O)NCCSCc2ccccc2)cc1)S(=O)(=O)c1ccccc1	12.6 µM [rising, partial curve]	22.4 µM [rising, single point]

Retrieved by compound from the entries so far (two):
Compound	AC50 [1]	AC50 [2]
Fc1ccccc1N1CCN(c2cnc3ccccc3n2)CC1	15.8 µM [rising, partial curve]	22.4 µM [rising, partial curve]
COc1ccccc1-c1cc(C(F)(F)F)nc(S(=O)(=O)CCCC(=O)N2CCOCC2)n1	22.4 µM [falling, single point]	12.6 µM [falling, single point]
